Results are given in words; binding and its absence hold for the method and conditions named. Some entries that bind do so weakly or less than the wild type.
Each binder was assayed against human ephrin B2 (EB2) expressed on cells (CHO-K1 transfected to express ephrin B2) (human) (UniProt P52799) (assay: immunofluorescence of peptide-displaying M13 phage bound to CHO-K1/ephrin B2 cells, detected with labelled anti-M13 pVIII antibody).

Chains of the proteins cited; added tags and fusions are not shown. Residues count along the entry.
UniProt P52799, residues 28-333: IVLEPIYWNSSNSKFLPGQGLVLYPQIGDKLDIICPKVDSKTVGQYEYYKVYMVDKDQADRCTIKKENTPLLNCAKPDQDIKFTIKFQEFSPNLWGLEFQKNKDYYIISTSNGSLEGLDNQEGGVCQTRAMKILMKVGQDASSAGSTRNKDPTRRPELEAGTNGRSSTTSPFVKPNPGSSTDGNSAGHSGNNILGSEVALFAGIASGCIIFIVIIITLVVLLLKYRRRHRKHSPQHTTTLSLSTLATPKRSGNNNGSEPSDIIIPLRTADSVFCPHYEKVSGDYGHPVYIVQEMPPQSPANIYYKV

Binder	binding
ASYSGTA [SEQ ID NO 59]	binds
QGAINHP [QGAINHP (SEQ ID NO:53), 7-mer peptide displayed on M13 phage]	binds
QHIRKPP [QHIRKPP (SEQ ID NO:55), 7-mer peptide displayed on M13 phage]	binds
TGAILHP [TGAILHP (SEQ ID NO:52), ephrin B2-targeting 7-mer peptide displayed on M13 phage]	binds
QHIPKPP [QHIPKPP (SEQ ID NO:54), 7-mer peptide displayed on M13 phage]	binds
QHILNPP [QHILNPP (SEQ ID NO:57), 7-mer peptide displayed on M13 phage]	binds
SILPYPY [SEQ ID NO 58]	binds
